Data taken from paper PMC8854428.
No constants are given. Whether binding was seen depends on the method and setting. In cells and extracts the contact can be indirect. Some binding calls cover weakened binding; strength is not graded here. Where a sequence is shown, tags or fusion partners need not be part of it.

By UniProt entry, the sequences of proteins in these tests, tags left out.
UniProt P56962: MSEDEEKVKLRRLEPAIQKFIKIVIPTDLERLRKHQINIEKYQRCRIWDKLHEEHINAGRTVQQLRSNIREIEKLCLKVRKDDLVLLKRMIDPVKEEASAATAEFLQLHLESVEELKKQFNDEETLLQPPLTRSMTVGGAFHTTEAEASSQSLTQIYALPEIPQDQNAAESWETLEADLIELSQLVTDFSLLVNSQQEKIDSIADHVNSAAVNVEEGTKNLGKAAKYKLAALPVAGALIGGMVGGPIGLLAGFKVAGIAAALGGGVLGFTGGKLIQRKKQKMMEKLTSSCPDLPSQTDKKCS

T1: Flag-tagged Snap29 (mouse) (UniProt Q9ERB0)
T1 sequence: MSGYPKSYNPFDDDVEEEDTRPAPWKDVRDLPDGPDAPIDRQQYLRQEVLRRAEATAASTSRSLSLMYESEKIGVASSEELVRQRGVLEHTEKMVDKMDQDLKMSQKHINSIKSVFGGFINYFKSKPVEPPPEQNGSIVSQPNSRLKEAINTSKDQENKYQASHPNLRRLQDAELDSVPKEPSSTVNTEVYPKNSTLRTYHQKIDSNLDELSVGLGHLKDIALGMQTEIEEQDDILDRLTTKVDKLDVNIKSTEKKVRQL

B1: STX7 (protein, UniProt O15400 1-261)
chain: MSYTPGVGGDPAQLAQRISSNIQKITQCSVEIQRTLNQLGTPQDSPELRQQLQQKQQYTNQLAKETDKYIKEFGSLPTTPSEQRQRKIQKDRLVAEFTTSLTNFQKVQRQAAEREKEFVARVRASSRVSGSFPEDSSKERNLVSWESQTQPQVQVQDEEITEDDLRLIHERESSIRQLEADIMDINEIFKDLGMMIHEQGDVIDSIEANVENAEVHVQQANQQLSRAADYQRKSRKTLCIIILILVIGVAIISLIIWGLNH
B2: YKT6 (protein, UniProt O15498 1-198)
chain: MKLYSLSVLYKGEAKVVLLKAAYDVSSFSFFQRSSVQEFMTFTSQLIVERSSKGTRASVKEQDYLCHVYVRNDSLAGVVIADNEYPSRVAFTLLEKVLDEFSKQVDRIDWPVGSPATIHYPALDGHLSRYQNPREADPMTKVQAELDETKIILHNTMESLLERGEKLDDLVSKSEVLGTQSKAFYKTARKQNSCCAIM

Target: T1, Flag-tagged Snap29 (mouse)
Test: co-IP; Flag-Snap29 transfected into shCtrl or shKANSL1 HeLa cells, EBSS 2 h, with or without 13-cis retinoic acid pretreatment (5 uM, 24 h); lysed in M2 buffer; anti-Flag M2 affinity gel overnight at 4 °C, five washes, eluted with 3x FLAG peptide; western blot

binding, binds:
STX17 (from UniProt P56962 1-302)
B1
B2
